Values from PubChem BioAssay AID1259308 (NCATS, 2017).

Assay: 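Candidate targets for better recombinant protein yield in mammalian cells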 (primary screen)
System: human HEK293 embryonic kidney cells stably expressing firefly luciferase (HEK-CMV-Luc2-Hygro)
Reagents: single siRNA against human genes, 0.8 pmol siRNA per well
Time to read-out: 72 h
Measured: 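Reporter luminescence and viable-cell signal on separate replicate plates, given as percent of non-targeting control and median/MAD z-scores, plus per-cell luciferase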
Scale: total luciferase, z-score and total luciferase, % of control: higher = more reporter protein produced
Call rule: 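Active when the median/MAD z-score for overall luciferase is greater than 3; a gene was taken forward for validation with new siRNAs if at least two of its three siRNAs passed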
Calls: active = raised luciferase; inactive = no rise
The whole screen tested about 59,000 reagents; shown is a part drawn at random. In the full data, about 1,510 (2.6%) were called active. 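Calls use total luciferase alone and ignore viability, so some active siRNAs may act by altering cell number.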 Reagents against one gene are numbered here. Further read-outs or replicates are left out here.

JOSD2 (Josephin domain containing 2) #1 | total luciferase, z-score = 0.396; total luciferase, % of control = 89.8; Call = inactive
JOSD2 (Josephin domain containing 2) #2 | total luciferase, z-score = -0.0467; total luciferase, % of control = 81; Call = inactive
JOSD2 (Josephin domain containing 2) #3 | total luciferase, z-score = -0.161; total luciferase, % of control = 78.7; Call = inactive
NEIL1 (nei like DNA glycosylase 1) #1 | total luciferase, z-score = -0.997; total luciferase, % of control = 62.1; Call = inactive
NEIL1 (nei like DNA glycosylase 1) #2 | total luciferase, z-score = -0.633; total luciferase, % of control = 69.3; Call = inactive
NEIL1 (nei like DNA glycosylase 1) #3 | total luciferase, z-score = 1.43; total luciferase, % of control = 110; Call = inactive
ASPDH (aspartate dehydrogenase domain containing) #1 | total luciferase, z-score = -0.085; total luciferase, % of control = 80.2; Call = inactive
ASPDH (aspartate dehydrogenase domain containing) #2 | total luciferase, z-score = 0.149; total luciferase, % of control = 84.9; Call = inactive
ASPDH (aspartate dehydrogenase domain containing) #3 | total luciferase, z-score = 0.706; total luciferase, % of control = 95.9; Call = inactive

Next part (3 carried over from the part before).
ASPDH (aspartate dehydrogenase domain containing) #1 | total luciferase, z-score = -0.085; total luciferase, % of control = 80.2; Call = inactive
ASPDH (aspartate dehydrogenase domain containing) #2 | total luciferase, z-score = 0.149; total luciferase, % of control = 84.9; Call = inactive
ASPDH (aspartate dehydrogenase domain containing) #3 | total luciferase, z-score = 0.706; total luciferase, % of control = 95.9; Call = inactive
KLHL27 (kelch like family member 27) #1 | total luciferase, z-score = -0.0643; total luciferase, % of control = 80.6; Call = inactive
KLHL27 (kelch like family member 27) #2 | total luciferase, z-score = 0.644; total luciferase, % of control = 94.7; Call = inactive
KLHL27 (kelch like family member 27) #3 | total luciferase, z-score = -0.145; total luciferase, % of control = 79; Call = inactive
PCDHGA7 (protocadherin gamma subfamily A, 7) #1 | total luciferase, z-score = 0.507; total luciferase, % of control = 92; Call = inactive
PCDHGA7 (protocadherin gamma subfamily A, 7) #2 | total luciferase, z-score = -0.535; total luciferase, % of control = 71.3; Call = inactive
PCDHGA7 (protocadherin gamma subfamily A, 7) #3 | total luciferase, z-score = -0.539; total luciferase, % of control = 71.2; Call = inactive
ZYG11B (zyg-11 family member B, cell cycle regulator) #1 | total luciferase, z-score = 0.0351; total luciferase, % of control = 82.6; Call = inactive
ZYG11B (zyg-11 family member B, cell cycle regulator) #2 | total luciferase, z-score = 0.0147; total luciferase, % of control = 82.2; Call = inactive
ZYG11B (zyg-11 family member B, cell cycle regulator) #3 | total luciferase, z-score = 0.257; total luciferase, % of control = 87; Call = inactive
HMGN2 (high mobility group nucleosomal binding domain 2) #1 | total luciferase, z-score = 0.548; total luciferase, % of control = 92.8; Call = inactive
HMGN2 (high mobility group nucleosomal binding domain 2) #2 | total luciferase, z-score = 0.204; total luciferase, % of control = 85.9; Call = inactive
HMGN2 (high mobility group nucleosomal binding domain 2) #3 | total luciferase, z-score = 1.79; total luciferase, % of control = 117; Call = inactive
